These are yes or no findings as the source states them, for the method shown. Binding seen in cells or lysates may run through a third protein. Some binding calls cover weakened binding; strength is not graded here.
What was measured:
[1] = biological target: C99 (stable inducible C99-expressing HEK293 cells; APP-CTFs precipitated with α-APPct) (UniProt P05067); assay: co-IP; vehicle-treated cells; RIPA lysate (500 μg), α-APPct antibody and Protein A Sepharose, washes in RIPA, blot with anti-myc 9E10
[2] = biological target: C99 (stable inducible C99-expressing HEK293 cells; APP-CTFs precipitated with α-APPct) (UniProt P05067); assay: condition: only cells treated with the γ-secretase inhibitor D6 (1 μM); co-IP; cells treated with the γ-secretase inhibitor D6 (1 μM); RIPA lysate (500 μg), α-APPct antibody and Protein A Sepharose, blot with anti-myc 9E10

Amino acid sequences for entries named in this document (tags omitted). Residues count along the entry.
UniProt P05067, residues 672-770: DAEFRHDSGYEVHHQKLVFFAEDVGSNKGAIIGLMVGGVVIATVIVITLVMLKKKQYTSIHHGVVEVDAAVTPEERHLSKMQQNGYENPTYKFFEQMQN
UniProt Q92673, residues 82-2214: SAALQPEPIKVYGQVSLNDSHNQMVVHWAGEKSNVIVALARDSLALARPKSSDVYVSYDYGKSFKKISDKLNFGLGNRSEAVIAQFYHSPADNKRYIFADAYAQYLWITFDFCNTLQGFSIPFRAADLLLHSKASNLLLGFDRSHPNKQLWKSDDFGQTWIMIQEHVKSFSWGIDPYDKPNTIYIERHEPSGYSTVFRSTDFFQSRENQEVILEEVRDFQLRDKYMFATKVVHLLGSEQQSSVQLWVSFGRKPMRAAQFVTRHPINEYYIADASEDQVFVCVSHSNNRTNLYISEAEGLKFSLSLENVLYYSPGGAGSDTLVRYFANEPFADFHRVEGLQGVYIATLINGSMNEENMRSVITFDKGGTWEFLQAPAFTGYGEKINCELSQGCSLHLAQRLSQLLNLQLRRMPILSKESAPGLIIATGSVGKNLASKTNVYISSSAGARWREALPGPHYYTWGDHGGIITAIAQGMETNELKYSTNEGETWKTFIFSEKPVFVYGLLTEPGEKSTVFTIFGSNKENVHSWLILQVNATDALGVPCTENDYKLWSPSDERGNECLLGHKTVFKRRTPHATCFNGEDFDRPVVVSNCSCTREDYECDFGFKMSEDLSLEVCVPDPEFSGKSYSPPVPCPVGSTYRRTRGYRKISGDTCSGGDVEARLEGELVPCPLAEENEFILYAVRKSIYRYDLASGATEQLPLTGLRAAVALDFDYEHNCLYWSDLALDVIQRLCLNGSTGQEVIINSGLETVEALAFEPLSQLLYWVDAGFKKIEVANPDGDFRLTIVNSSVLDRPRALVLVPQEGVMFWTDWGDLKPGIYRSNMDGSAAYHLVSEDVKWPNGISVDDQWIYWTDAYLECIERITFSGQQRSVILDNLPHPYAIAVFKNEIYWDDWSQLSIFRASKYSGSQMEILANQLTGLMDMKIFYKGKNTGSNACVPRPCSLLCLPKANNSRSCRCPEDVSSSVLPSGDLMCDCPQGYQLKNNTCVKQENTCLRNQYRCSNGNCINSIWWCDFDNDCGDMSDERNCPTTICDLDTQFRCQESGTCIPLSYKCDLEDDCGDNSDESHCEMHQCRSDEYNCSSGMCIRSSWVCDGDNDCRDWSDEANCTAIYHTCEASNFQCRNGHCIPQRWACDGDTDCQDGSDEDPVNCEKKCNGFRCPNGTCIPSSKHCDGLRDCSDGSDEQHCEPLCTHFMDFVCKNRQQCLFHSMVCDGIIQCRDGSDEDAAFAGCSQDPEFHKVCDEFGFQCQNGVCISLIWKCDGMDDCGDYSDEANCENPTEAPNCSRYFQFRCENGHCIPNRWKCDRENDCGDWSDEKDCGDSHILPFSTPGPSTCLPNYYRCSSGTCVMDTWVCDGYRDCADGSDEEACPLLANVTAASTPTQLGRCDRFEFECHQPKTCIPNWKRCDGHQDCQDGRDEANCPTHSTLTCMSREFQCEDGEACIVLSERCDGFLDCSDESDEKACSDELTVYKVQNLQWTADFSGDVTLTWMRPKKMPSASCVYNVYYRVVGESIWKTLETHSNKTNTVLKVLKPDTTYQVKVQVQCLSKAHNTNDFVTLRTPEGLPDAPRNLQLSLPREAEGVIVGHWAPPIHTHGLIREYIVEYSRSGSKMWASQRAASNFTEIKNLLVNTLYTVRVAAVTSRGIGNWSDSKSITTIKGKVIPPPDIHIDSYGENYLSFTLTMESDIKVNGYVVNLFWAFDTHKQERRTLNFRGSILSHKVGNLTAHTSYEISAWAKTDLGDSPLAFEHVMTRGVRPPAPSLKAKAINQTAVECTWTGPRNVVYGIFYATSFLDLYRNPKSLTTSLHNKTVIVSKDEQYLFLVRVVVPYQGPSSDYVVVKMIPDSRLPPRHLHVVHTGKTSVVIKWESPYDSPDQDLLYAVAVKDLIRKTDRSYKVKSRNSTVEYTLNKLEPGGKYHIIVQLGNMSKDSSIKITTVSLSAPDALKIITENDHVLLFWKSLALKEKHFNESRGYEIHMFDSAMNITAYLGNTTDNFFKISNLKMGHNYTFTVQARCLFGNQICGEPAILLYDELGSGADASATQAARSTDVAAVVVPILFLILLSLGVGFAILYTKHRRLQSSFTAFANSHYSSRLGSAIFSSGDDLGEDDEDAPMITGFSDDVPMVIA

In the case of “myc-tagged SorLA (sortilin receptor with A-type repeats) (from UniProt Q92673 82-2214)”, the binding [1] is reported as “binds” and the binding [2] is reported as “no binding”.
